PubChem BioAssay AID1259405, NCATS | 2018
The whole screen tested about 50,000 reagents; below is a part drawn at random. About 4,000 of all reagents (8%) were called active. 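Mouse siRNA library applied to hamster cells; one well for each siRNA.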 A number with no mark means an inactive call. Reagents against one gene are numbered here. No sequences are given here.

- Assay: 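Mouse-designed siRNAs used to find CHO productivity engineering targets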 (primary screen)
- Cells: Chinese hamster CHO-K1 ovary cells with stable secreted eGFP expression
- Knock-down reagent: single siRNA against mouse genes, 0.8 pmol siRNA per well (2 µl of 400 nM stock)
- Time to read-out: 3 days
- Measurement: 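Per-well intracellular GFP measured by laser scanning cytometry, plus viability from ATP luminescence, each relative to plate median of non-targeting control wells, in %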
- Scale: GFP, % of control: higher = more GFP per well, higher productivity; viability (ATP), % of control: higher = more viable cells (more ATP)
- Hit rule: 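a knock-down is called active if GFP reaches 120% or more of non-targeting control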

gene	reagent	GFP, % of control	viability (ATP), % of control
Trim65	1	107	101
Trim65	2	65.5	79.1
Ppp2r5b	1	206 (active)	85.1
Ppp2r5b	2	86.9	70.9
Ppp2r5b	3	58.5	64
Tigd3	1	72.2	109
Tigd3	2	97.3	58.1
Tigd3	3	81.1	57.7
Phf23	1	38.9	57.8
Phf23	2	91	82.7
Phf23	3	93.8	74.5
Asap3	1	90.3	95.2
Asap3	2	79.5	86.9
Asap3	3	69.5	72.1

Continued, starting with the last 3 of the part before.
gene	reagent	GFP, % of control	viability (ATP), % of control
Asap3	1	90.3	95.2
Asap3	2	79.5	86.9
Asap3	3	69.5	72.1
Taar7d	1	148 (active)	69.7
Taar7d	2	81.8	85.5
Taar7d	3	108	79.4
Kif1a	1	90.3	78.9
Kif1a	2	67	106
Ipo4	1	74.5	80.4
Ipo4	2	78.4	103
Ipo4	3	160 (active)	89.1
Ms4a1	1	248 (active)	110
Ms4a1	2	84.3	75.9
Ms4a1	3	56.6	74.9
Ms4a1	4	118	92.3
Ms4a1	5	70.1	75.1
Ms4a1	6	124 (active)	85.3
Mettl8	1	100	49.2
Mettl8	2	76.6	71.1
Mettl8	3	95	76.4
Or7e166	1	159 (active)	94.9
Or7e166	2	94.2	56.6
Or7e166	3	110	101
